## Primary screen of a compound library

By UniProt entry, the sequences of proteins in these tests, tags left out.
UniProt E9BF75, entry or part of it: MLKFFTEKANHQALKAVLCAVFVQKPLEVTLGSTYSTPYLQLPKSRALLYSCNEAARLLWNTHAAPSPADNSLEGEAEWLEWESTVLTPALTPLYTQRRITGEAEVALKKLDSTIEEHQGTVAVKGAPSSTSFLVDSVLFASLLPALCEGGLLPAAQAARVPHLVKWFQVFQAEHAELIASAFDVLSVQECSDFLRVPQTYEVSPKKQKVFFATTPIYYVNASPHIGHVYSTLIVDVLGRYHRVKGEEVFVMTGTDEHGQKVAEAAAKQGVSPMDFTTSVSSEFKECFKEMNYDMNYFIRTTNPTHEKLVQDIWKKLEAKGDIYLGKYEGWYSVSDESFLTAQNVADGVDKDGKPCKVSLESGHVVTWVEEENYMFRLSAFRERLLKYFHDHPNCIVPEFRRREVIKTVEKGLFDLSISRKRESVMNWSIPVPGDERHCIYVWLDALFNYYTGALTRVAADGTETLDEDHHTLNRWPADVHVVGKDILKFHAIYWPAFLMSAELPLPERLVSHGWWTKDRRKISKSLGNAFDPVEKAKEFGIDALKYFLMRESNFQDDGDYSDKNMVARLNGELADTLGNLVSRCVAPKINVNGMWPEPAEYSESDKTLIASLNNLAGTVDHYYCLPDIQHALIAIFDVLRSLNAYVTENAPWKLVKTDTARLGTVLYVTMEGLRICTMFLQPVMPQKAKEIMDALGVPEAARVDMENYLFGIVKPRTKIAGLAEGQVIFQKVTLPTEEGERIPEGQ

Mtb heat-shock: 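Assay on Mycobacterium tuberculosis, filed only as a heat shock assay from Cornell; the read-out is not stated. The concentration is filed as 10 mM, unlikely as a test dose, so the dose is not known. The record gives no direction; compounds that gave an IC50 in retests scored well above the rest, so higher reads as stronger inhibition. Size under these conditions: about 69,000 compounds, about 930 of them at 50% or above in at least one test.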
LdMetRS: 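Methionyl-tRNA synthetase (putative), Leishmania donovani (UniProt E9BF75). Primary screen of methionyl-tRNA synthetase; the read-out is not stated. The test concentration is not given. Values are per cent inhibition. About 68,000 compounds were tested under these conditions; 0.035% (about 24) showed 50% or more at least once.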
Mtb growth Cornell: 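Whole-cell assay for inhibitors of Mycobacterium tuberculosis growth, labelled Cornell in the record; the read-out is not stated. The concentration is filed as 10 mM, unlikely as a test dose, so the dose is not known. The record gives no direction; compounds strong in two other growth screens of this library score well above the rest, so higher reads as stronger inhibition. Of about 53,000 compounds tested this way, about 900 (1.7%) reached 50% or more in at least one test.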

Results are percentages, as filed.
How 0% and 100% were set is not recorded. Most values in the screen are low, and negative values occur.
Compounds were drawn at random from those tested, without regard to their results.
A dash means the value is not listed here; it may have been measured.

| # | structure | Mtb heat-shock | LdMetRS | Mtb growth Cornell |
|---|---|---|---|---|
| 1 | `CCc1nc(-c2ccnc(N3CCNCC3)n2)no1` | - | 20.49% | - |
| 2 | `CNC[C@H]1CC[C@H](c2cc(CN(C)S(=O)(=O)N(C)C)n(C)n2)CC1` | - | 7.302% | - |
| 3 | `O=C1CC[C@H](C(=O)N(CCc2ccccc2)C2CCOC2)N1` (stereo not given in full) | -5.436% | 8.377% | -20.63% |
| 4 | `CCn1ncc2c1CN(C(=O)Cc1cccs1)CC2COC` (stereo not given) | - | 15.27% | - |
| 5 | `Cc1ccc(C)c2c(C)c(C(=O)NCCCn3cnnc3)[nH]c12` | -10.77% | 5.625% | - |
| 6 | `CCOc1cccc(CNc2ccccc2C(F)(F)F)c1O` | -12.93% | 8.182% | 16.55% |
| 7 | `Cn1c(C(=O)Nc2nc[nH]n2)cc2ccccc21` | -9.494% | 7.58% | 3.735% |
| 8 | `CCOCC1CN(CC2CC2)Cc2nn(CC3CC3)cc21.O=C(O)C(F)(F)F` (stereo not given) | 0.05869% | - | 9.479% |
| 9 | `CN(C)C(=O)c1nc2c(s1)CCN(C(=O)c1ccc(Cl)cc1)CC2` | -1.876% | 14.64% | 8.638% |
| 10 | `Cc1cc(N2CCCC2c2nccnc2C)ncn1` (stereo not given) | -10.25% | 7.12% | -17.74% |
| 11 | `Cc1ccc(CN2CCN(C3CCSCC3)CC2CCO)o1` (stereo not given) | -14.94% | 1.681% | -8.13% |
| 12 | `Cc1cc(C[C@@H]2COC[C@H]2NCc2ccc(C(C)C)cc2)on1` | - | 20.06% | - |
| 13 | `CC(C)CC(Cc1cccc(Br)c1)C(=O)O` (stereo not given) | -14.37% | 6.434% | -4.48% |
| 14 | `COCCNC(=O)Cn1c(-c2cccc(F)c2)nc(C)c(CCO)c1=O` | 66.78% | 18.7% | -6.7% |
| 15 | `c1ccc(Oc2nccnc2C2CCN(C3CCOCC3)CC2)cc1` | 5% | 13.3% | 15.47% |
| 16 | `Cc1cccc(CO[C@@H]2CC[C@H]3[C@H]2OCCN3Cc2cc(C)on2)n1` | - | 8.143% | - |
| 17 | `Cn1cncc1CNC1CC2(CCN(CC3CC3)CC2)c2ccccc21` (stereo not given) | - | 17.03% | - |
| 18 | `Cc1cc(C(=O)N2CCNC(=O)C2)c(C)n1Cc1ccccn1` | -169% | 14.8% | - |
| 19 | `CCS(=O)(=O)N1CCOC(CCCc2ccccc2)C1` (stereo not given) | -6.362% | 0.8219% | - |
| 20 | `Clc1cccc(Cl)c1-c1nnc(CNCCn2cccn2)o1` | 40.41% | 12.11% | - |
| 21 | `CCCNC(=O)c1cc(C(C)C)nc(N2CCCC2)n1` | -16.84% | 4.774% | - |
| 22 | `NC(=O)COc1cccc(CN2CCc3cncnc3C2)c1` | -15.01% | 25.7% | - |
| 23 | `CC(C)(C)SCCCC(=O)N1CCC(Nc2cccnn2)CC1` | 8.678% | 2.614% | -0.4764% |
| 24 | `CCc1cnc(N)nc1NCCN1CCCCC1` | -38.55% | 11.02% | -16.04% |
| 25 | `COCCN1CCC2(CCCN(C(=O)c3cncn3C)C2)CC1` | - | 10.87% | - |
| 26 | `COc1cccc(CNC(C)Cn2cccn2)c1OC` (stereo not given) | - | 13.36% | - |
| 27 | `Cc1ncccc1OCC(=O)N1CCN[C@H]2CS(=O)(=O)C[C@H]21` | - | 16.73% | - |
| 28 | `Cc1csc(CN2CCC[C@]3(C[C@H](Oc4ccccn4)CO3)C2)n1` | - | 3.5% | - |
| 29 | `Cn1cc2c(n1)C(CNC1CCOCC1)OCC2.O=C(O)C(F)(F)F` (stereo not given) | -4.583% | - | -10.33% |
| 30 | `Cc1nc(C)n(CC2CN(Cc3ccc4c(c3)OCCO4)CCO2)n1` (stereo not given) | -12.68% | 17.71% | 11.07% |
| 31 | `O=C(NCC1CCCO1)c1cc(COc2ccccc2F)[nH]n1` (stereo not given) | -35.53% | 9.021% | 4.517% |
| 32 | `Cc1noc(C2CCCN(C(=O)c3ccc(Br)o3)C2)n1` (stereo not given) | -6.995% | 9.722% | - |
| 33 | `Cn1nc(-c2ccccc2)c(Br)c1C(=O)O` | -5.604% | 13.03% | 0.8742% |
| 34 | `CCc1nc2n(n1)CCCC2NC(=O)Nc1cc(OC)ccc1C` (stereo not given) | 8.396% | 12.43% | - |
| 35 | `Cc1oc(C(=O)O)cc1S(=O)(=O)Nc1ccc(Cl)cc1F` | 12.06% | -1.425% | -32.37% |
| 36 | `NC(=O)c1ccnc(N2CCCC(CO)(Cc3ccccc3)C2)c1` (stereo not given) | -3.213% | 12.47% | -2.717% |
| 37 | `CCC(NC(=O)c1cnc(N(C)C)nc1C)c1ccc(S(C)(=O)=O)cc1` (stereo not given) | -194.4% | 17.22% | - |
| 38 | `c1cc(CN2CCCC2)ccc1CNc1cncc2nnnn12` | -21.79% | 5.516% | 0.6315% |
| 39 | `Fc1cnc(N2CCOCC3(CCCN(c4nncs4)C3)C2)nc1` (stereo not given) | 8.848% | 15.88% | -23.35% |
| 40 | `COCc1cncc2c1CCN(C(=O)c1cscn1)C2` | -7.438% | 4.692% | -15.21% |
| 41 | `CO[C@@H]1CCN(c2nnc(C)s2)C[C@@H]1Cc1ccccc1` | - | 8.143% | - |
| 42 | `[H][C@]12COC[C@@H](NS(C)(=O)=O)[C@@]1([H])CN(Cc1ccco1)C2` | -1.76% | - | 9.127% |
| 43 | `O=C(NCCc1cccc(F)c1)c1nc2c(s1)CCCN2C(=O)C1CC1` | 37.42% | 15.06% | -0.2674% |
| 44 | `CCN(C(=O)c1cc(C)oc1C)C1CC1` | 13.66% | 9.254% | 4.626% |
| 45 | `O=C(COCC1CC1)N1CCCC(n2cncn2)C1` (stereo not given) | 8.678% | 5.229% | 5.221% |
| 46 | `Cc1ccc(C(=O)NC(CN2CCCC2=O)c2ccccc2)c(=O)[nH]1` (stereo not given) | -25.46% | 7.389% | -21.38% |
| 47 | `CN(Cc1cccnc1)Cc1cn2c(n1)CN(C1CCOC1)CC2.O=C(O)C(F)(F)F.O=C(O)C(F)(F)F.O=C(O)C(F)(F)F` (stereo not given) | -8.217% | - | - |
| 48 | `O=C(COc1ccccc1NCc1ccc(F)cc1)N1CCOCC1` | -8.844% | 13.24% | -20.08% |
| 49 | `O=C1CCC(c2ccccc2)(c2ccccc2)CN1CCO` | -15.8% | 13.71% | 3.925% |
| 50 | `Cc1cc(C(=O)N2CCC3(CC2)CC(c2cccnc2)C(=O)N3C)no1` (stereo not given) | - | 0% | - |
| 51 | `Cc1cccc(CN2C[C@@H]3COC[C@]3(CNC(=O)c3ccccc3)C2)n1` | - | 3.268% | - |
| 52 | `Cn1cnc2c1C(COCc1cccnc1)N(Cc1nccs1)CC2` (stereo not given) | - | 9.446% | - |
| 53 | `O=C(c1ccnnc1)N1C[C@@H](OCC2CCOCC2)[C@H]2OCCC[C@H]21` | - | 11.59% | - |
| 54 | `CN(Cc1noc2c1CCCC2)C(=O)CN1C(=O)CSc2ccccc21` | 11.41% | -1.907% | -5.508% |
| 55 | `Cc1nsc(N2CCCN(C(=O)NCc3cc(C)on3)CC2)n1` | -7.856% | 17.17% | 7.589% |
| 56 | `c1ccc(CCCN2CCCC2Cn2cncn2)cc1` (stereo not given) | 1.455% | 25.14% | - |
| 57 | `Cc1cc(C)cc(NC(=O)c2cnc(N3CCN(C)CC3)nc2C)c1` | 7.216% | 13.7% | 26.07% |
| 58 | `CC(=O)N1CCN(Cc2ccc(C)o2)CC2(CC(=O)N(C)C2)C1.O=C(O)C(F)(F)F` (stereo not given) | -2.414% | - | 2.738% |
| 59 | `[H][C@]12CC[C@]([H])(CN(c3ncccn3)C1)N(CCOC)C2=O` | 6.104% | - | 3.272% |
| 60 | `Nc1cc(-c2c[nH]nc2C2CCCN2S(=O)(=O)c2ccccc2)ccn1` (stereo not given) | 4.657% | 7.477% | -1.954% |

The last 6 entries again:

structure	Mtb heat-shock	LdMetRS	Mtb growth Cornell
Cc1nsc(N2CCCN(C(=O)NCc3cc(C)on3)CC2)n1	-7.856%	17.17%	7.589%
c1ccc(CCCN2CCCC2Cn2cncn2)cc1 (stereo not given)	1.455%	25.14%	-
Cc1cc(C)cc(NC(=O)c2cnc(N3CCN(C)CC3)nc2C)c1	7.216%	13.7%	26.07%
CC(=O)N1CCN(Cc2ccc(C)o2)CC2(CC(=O)N(C)C2)C1.O=C(O)C(F)(F)F (stereo not given)	-2.414%	-	2.738%
[H][C@]12CC[C@]([H])(CN(c3ncccn3)C1)N(CCOC)C2=O	6.104%	-	3.272%
Nc1cc(-c2c[nH]nc2C2CCCN2S(=O)(=O)c2ccccc2)ccn1 (stereo not given)	4.657%	7.477%	-1.954%

The values are deposited in ChEMBL (CHEMBL3988442, “University of Dundee, Small-Polar-MMV Screening Library” (2021)).